Data reported in article PMC12657314, “Structural modeling and biochemical characterization of MSMEG_0748, a MoxR ATPase from Mycobacterium smegmatis” (Computational and Structural Biotechnology Journal, 2025).
No constants are given. Whether binding was seen depends on the method and setting. In cells and extracts the contact can be indirect. Some binding calls cover weakened binding; strength is not graded here. Where a sequence is shown, tags or fusion partners need not be part of it.

T1: HA-tagged MSMEG_0748 (Mycobacterium smegmatis) (UniProt A0QQG6)
T1 sequence: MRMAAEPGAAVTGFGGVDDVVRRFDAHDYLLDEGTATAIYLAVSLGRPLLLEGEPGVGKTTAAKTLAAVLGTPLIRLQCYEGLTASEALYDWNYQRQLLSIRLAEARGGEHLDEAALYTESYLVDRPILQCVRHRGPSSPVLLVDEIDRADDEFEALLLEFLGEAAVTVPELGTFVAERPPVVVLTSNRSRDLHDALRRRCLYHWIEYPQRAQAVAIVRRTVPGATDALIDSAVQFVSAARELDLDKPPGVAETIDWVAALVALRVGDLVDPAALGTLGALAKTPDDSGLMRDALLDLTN

T2: Flag-tagged MSMEG_0751 (VWA domain-containing protein) (Mycobacterium smegmatis) (UniProt A0QQG8)
T2 sequence: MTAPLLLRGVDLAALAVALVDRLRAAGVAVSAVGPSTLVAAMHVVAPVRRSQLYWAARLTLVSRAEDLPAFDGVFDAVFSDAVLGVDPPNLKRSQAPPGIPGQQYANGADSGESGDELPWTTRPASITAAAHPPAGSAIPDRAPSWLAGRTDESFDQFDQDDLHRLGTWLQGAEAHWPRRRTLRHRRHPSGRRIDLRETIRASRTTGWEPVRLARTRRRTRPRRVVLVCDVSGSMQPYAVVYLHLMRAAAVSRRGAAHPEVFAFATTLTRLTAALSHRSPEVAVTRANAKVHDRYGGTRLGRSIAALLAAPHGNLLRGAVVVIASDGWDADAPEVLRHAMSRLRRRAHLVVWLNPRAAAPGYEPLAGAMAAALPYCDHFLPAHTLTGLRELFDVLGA


Key:
[1] = target: T1, HA-tagged MSMEG_0748 (Mycobacterium smegmatis); assay: co-IP; HEK293T cells co-transfected, lysed in NP-40 buffer; lysates incubated with anti-HA or anti-FLAG antibody 3 h at 4°C, Protein A-Sepharose beads 1 h; immunoblot
[2] = target: T2, Flag-tagged MSMEG_0751 (VWA domain-containing protein) (Mycobacterium smegmatis); assay: as above

| Binder | binding [1] | binding [2] |
| --- | --- | --- |
| Flag-tagged MSMEG_0751 (VWA domain-containing protein) (protein, UniProt A0QQG8 1-397) MTAPLLLRGVDLAALAVALVDRLRAAGVAVSAVGPSTLVAAMHVVAPVRRSQLYWAARLTLVSRAEDLPAFDGVFDAVFSDAVLGVDPPNLKRSQAPPGIPGQQYANGADSGESGDELPWTTRPASITAAAHPPAGSAIPDRAPSWLAGRTDESFDQFDQDDLHRLGTWLQGAEAHWPRRRTLRHRRHPSGRRIDLRETIRASRTTGWEPVRLARTRRRTRPRRVVLVCDVSGSMQPYAVVYLHLMRAAAVSRRGAAHPEVFAFATTLTRLTAALSHRSPEVAVTRANAKVHDRYGGTRLGRSIAALLAAPHGNLLRGAVVVIASDGWDADAPEVLRHAMSRLRRRAHLVVWLNPRAAAPGYEPLAGAMAAALPYCDHFLPAHTLTGLRELFDVLGA | binds |  |
| HA-tagged MSMEG_0748 (enzyme, UniProt A0QQG6 1-300) MRMAAEPGAAVTGFGGVDDVVRRFDAHDYLLDEGTATAIYLAVSLGRPLLLEGEPGVGKTTAAKTLAAVLGTPLIRLQCYEGLTASEALYDWNYQRQLLSIRLAEARGGEHLDEAALYTESYLVDRPILQCVRHRGPSSPVLLVDEIDRADDEFEALLLEFLGEAAVTVPELGTFVAERPPVVVLTSNRSRDLHDALRRRCLYHWIEYPQRAQAVAIVRRTVPGATDALIDSAVQFVSAARELDLDKPPGVAETIDWVAALVALRVGDLVDPAALGTLGALAKTPDDSGLMRDALLDLTN |  | binds |
